# The other results are listed elsewhere or left out.
# Tests used:
# Test in all cases: glycan array binding signal (z-score within array); higher = stronger binding
# Details in all cases: glycan notation: IUPAC condensed, linker removed; mutation: Y54A
# [1] = target: Neu5Ac(a2-3)Gal(b1-4)GlcNAc(b1-3)[Neu5Ac(a2-3)Gal(b1-4)GlcNAc(b1-6)]GalNAc
# How it was run: (§1)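 The Consortium for Functional Glycomics database supplied 3228 glycan arrays, of which those lacking an available protein sequence were dropped. The binding signal, a within-array Z-score, was averaged across arrays of the same protein sequence and across linkers. Negative scores can be read as non-binding.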
# [2] = target: Neu5Ac(a2-3)Gal(b1-4)GlcNAc(b1-6)GalNAc
# How it was run: as §1
# [3] = target: Neu5Ac(a2-3)Gal(b1-4)GlcNAc(b1-6)[Gal(b1-3)]GalNAc
# How it was run: as §1
# [4] = target: Neu5Ac(a2-3)Gal(b1-4)GlcNAc(b1-6)[Neu5Ac(a2-3)Gal(b1-3)]GalNAc
# How it was run: as §1
# [5] = target: Neu5Ac(a2-3)Gal(b1-4)GlcNAc6S
# How it was run: as §1
# [6] = target: Neu5Ac(a2-3)Gal(b1-4)[Fuc(a1-3)]GlcNAc
# How it was run: as §1
# [7] = target: Neu5Ac(a2-3)Gal(b1-4)[Fuc(a1-3)]GlcNAc(b1-2)Man
# How it was run: as §1
# [8] = target: Neu5Ac(a2-3)Gal(b1-4)[Fuc(a1-3)]GlcNAc(b1-3)Gal
# How it was run: as §1
# [9] = target: Neu5Ac(a2-3)Gal(b1-4)[Fuc(a1-3)]GlcNAc(b1-3)Gal(b1-4)GlcNAc
# How it was run: as §1
# [10] = target: Neu5Ac(a2-3)Gal(b1-4)[Fuc(a1-3)]GlcNAc(b1-3)Gal(b1-4)[Fuc(a1-3)]GlcNAc(b1-3)Gal(b1-4)[Fuc(a1-3)]GlcNAc
# How it was run: as §1
# [11] = target: Neu5Ac(a2-3)Gal(b1-4)[Fuc(a1-3)]GlcNAc(b1-3)GalNAc
# How it was run: as §1
# [12] = target: Neu5Ac(a2-3)Gal(b1-4)[Fuc(a1-3)]GlcNAc(b1-6)[Gal(b1-3)]GalNAc
# How it was run: as §1
# [13] = target: Neu5Ac(a2-3)Gal(b1-4)[Fuc(a1-3)]GlcNAc(b1-6)[Neu5Ac(a2-3)Gal(b1-3)]GalNAc
# How it was run: as §1
# [14] = target: Neu5Ac(a2-3)Gal(b1-4)[Fuc(a1-3)]GlcNAc6S
# How it was run: as §1
# [15] = target: Neu5Ac(a2-3)Gal6S(b1-4)GlcNAc
# How it was run: as §1
# [16] = target: Neu5Ac(a2-3)Gal6S(b1-4)[Fuc(a1-3)]GlcNAc
# How it was run: as §1
# [17] = target: Neu5Ac(a2-3)GalNAc
# How it was run: as §1
# [18] = target: Neu5Ac(a2-3)GalNAc(b1-4)GlcNAc
# How it was run: as §1
# [19] = target: Neu5Ac(a2-3)[GalNAc(b1-4)]Gal(b1-4)Glc
# How it was run: as §1
# [20] = target: Neu5Ac(a2-3)[GalNAc(b1-4)]Gal(b1-4)GlcNAc
# How it was run: as §1
# [21] = target: Neu5Ac(a2-3)[GalNAc(b1-4)]Gal(b1-4)GlcNAc(b1-3)GalNAc
# How it was run: as §1
# [22] = target: Neu5Ac(a2-3)[Neu5Ac(a2-6)]GalNAc
# How it was run: as §1
# [23] = target: Neu5Ac(a2-6)Gal
# How it was run: as §1
# [24] = target: Neu5Ac(a2-6)Gal(b1-3)GlcNAc(b1-3)[Gal(b1-4)GlcNAc(b1-6)]Gal(b1-4)Glc
# How it was run: as §1
# [25] = target: Neu5Ac(a2-6)Gal(b1-4)Glc
# How it was run: as §1
# [26] = target: Neu5Ac(a2-6)Gal(b1-4)GlcNAc
# How it was run: as §1
# [27] = target: Neu5Ac(a2-6)Gal(b1-4)GlcNAc(b1-2)Man
# How it was run: as §1
# [28] = target: Neu5Ac(a2-6)Gal(b1-4)GlcNAc(b1-2)Man(a1-3)Man(b1-4)GlcNAc(b1-4)GlcNAc
# How it was run: as §1
# [29] = target: Neu5Ac(a2-6)Gal(b1-4)GlcNAc(b1-2)Man(a1-3)[Gal(b1-4)GlcNAc(b1-2)Man(a1-6)]Man(b1-4)GlcNAc(b1-4)GlcNAc
# How it was run: as §1
# [30] = target: Neu5Ac(a2-6)Gal(b1-4)GlcNAc(b1-2)Man(a1-3)[GlcNAc(b1-2)Man(a1-6)]Man(b1-4)GlcNAc(b1-4)GlcNAc
# How it was run: as §1
# [31] = target: Neu5Ac(a2-6)Gal(b1-4)GlcNAc(b1-2)Man(a1-3)[GlcNAc(b1-4)][Neu5Ac(a2-6)Gal(b1-4)GlcNAc(b1-2)Man(a1-6)]Man(b1-4)GlcNAc(b1-4)GlcNAc
# How it was run: as §1
# [32] = target: Neu5Ac(a2-6)Gal(b1-4)GlcNAc(b1-2)Man(a1-3)[Man(a1-6)]Man(b1-4)GlcNAc(b1-4)GlcNAc
# How it was run: as §1
# [33] = target: Neu5Ac(a2-6)Gal(b1-4)GlcNAc(b1-2)Man(a1-3)[Neu5Ac(a2-3)Gal(b1-4)GlcNAc(b1-2)Man(a1-6)]Man(b1-4)GlcNAc(b1-4)GlcNAc
# How it was run: as §1
# [34] = target: Neu5Ac(a2-6)Gal(b1-4)GlcNAc(b1-2)Man(a1-3)[Neu5Ac(a2-6)Gal(b1-4)GlcNAc(b1-2)Man(a1-6)]Man(b1-4)GlcNAc(b1-4)GlcNAc
# How it was run: as §1
# [35] = target: Neu5Ac(a2-6)Gal(b1-4)GlcNAc(b1-2)Man(a1-3)[Neu5Ac(a2-6)Gal(b1-4)GlcNAc(b1-2)Man(a1-6)]Man(b1-4)GlcNAc(b1-4)[Fuc(a1-6)]GlcNAc
# How it was run: as §1
# [36] = target: Neu5Ac(a2-6)Gal(b1-4)GlcNAc(b1-2)Man(a1-6)Man(b1-4)GlcNAc(b1-4)GlcNAc
# How it was run: as §1
# [37] = target: Neu5Ac(a2-6)Gal(b1-4)GlcNAc(b1-2)Man(a1-6)[Gal(b1-4)GlcNAc(b1-2)Man(a1-3)]Man(b1-4)GlcNAc(b1-4)GlcNAc
# How it was run: as §1
# [38] = target: Neu5Ac(a2-6)Gal(b1-4)GlcNAc(b1-2)Man(a1-6)[GlcNAc(b1-2)Man(a1-3)]Man(b1-4)GlcNAc(b1-4)GlcNAc
# How it was run: as §1
# [39] = target: Neu5Ac(a2-6)Gal(b1-4)GlcNAc(b1-2)Man(a1-6)[Man(a1-3)]Man(b1-4)GlcNAc(b1-4)GlcNAc
# How it was run: as §1
# [40] = target: Neu5Ac(a2-6)Gal(b1-4)GlcNAc(b1-2)[Neu5Ac(a2-6)Gal(b1-4)GlcNAc(b1-4)]Man(a1-3)[GlcNAc(b1-4)][Neu5Ac(a2-6)Gal(b1-4)GlcNAc(b1-2)[Neu5Ac(a2-6)Gal(b1-4)GlcNAc(b1-6)]Man(a1-6)]Man(b1-4)GlcNAc(b1-4)GlcNAc
# How it was run: as §1
# [41] = target: Neu5Ac(a2-6)Gal(b1-4)GlcNAc(b1-2)[Neu5Ac(a2-6)Gal(b1-4)GlcNAc(b1-4)]Man(a1-3)[GlcNAc(b1-4)][Neu5Ac(a2-6)Gal(b1-4)GlcNAc(b1-4)Man(a1-6)]Man(b1-4)GlcNAc(b1-4)GlcNAc
# How it was run: as §1
# [42] = target: Neu5Ac(a2-6)Gal(b1-4)GlcNAc(b1-2)[Neu5Ac(a2-6)Gal(b1-4)GlcNAc(b1-6)]Man(a1-6)[Neu5Ac(a2-6)Gal(b1-4)GlcNAc(b1-2)Man(a1-3)][GlcNAc(b1-4)]Man(b1-4)GlcNAc(b1-4)GlcNAc
# How it was run: as §1
# [43] = target: Neu5Ac(a2-6)Gal(b1-4)GlcNAc(b1-3)Gal(b1-3)GlcNAc
# How it was run: as §1
# [44] = target: Neu5Ac(a2-6)Gal(b1-4)GlcNAc(b1-3)Gal(b1-4)GlcNAc
# How it was run: as §1
# [45] = target: Neu5Ac(a2-6)Gal(b1-4)GlcNAc(b1-3)Gal(b1-4)GlcNAc(b1-2)Man(a1-3)[Neu5Ac(a2-6)Gal(b1-4)GlcNAc(b1-3)Gal(b1-4)GlcNAc(b1-2)Man(a1-6)]GalNAc
# How it was run: as §1
# [46] = target: Neu5Ac(a2-6)Gal(b1-4)GlcNAc(b1-3)Gal(b1-4)GlcNAc(b1-3)Gal(b1-4)GlcNAc
# How it was run: as §1
binder,measurement,setting,value
"CBP21 (Serratia marcescens), O83009 (protein) MNKTSRTLLSLGLLSAAMFGVSQQANAHGYVESPASRAYQCKLQLNTQCGSVQAEPQSVEGLKGFPQAGPADGHIASADKSTFFELDQQTPTRWNKLNLKTGPNSFTWKLTARHSTTSWRYFITKPNWDASQPLTRASFDLTPFCQFNDGGAIPAAQVTHQCNIPADRSGSHVILAVWDIADTANAFYQAIDVNLSK",glycan array binding signal (z-score),[1],1.31
same,glycan array binding signal (z-score),[2],-0.781
same,glycan array binding signal (z-score),[3],-0.164
same,glycan array binding signal (z-score),[4],-0.744
same,glycan array binding signal (z-score),[5],0.409
same,glycan array binding signal (z-score),[6],-0.628
same,glycan array binding signal (z-score),[7],0.87
same,glycan array binding signal (z-score),[8],-0.143
same,glycan array binding signal (z-score),[9],-0.566
same,glycan array binding signal (z-score),[10],-0.011
same,glycan array binding signal (z-score),[11],0.503
same,glycan array binding signal (z-score),[12],0.002
same,glycan array binding signal (z-score),[13],-0.287
same,glycan array binding signal (z-score),[14],-0.225
same,glycan array binding signal (z-score),[15],4.07
same,glycan array binding signal (z-score),[16],-0.037
same,glycan array binding signal (z-score),[17],-0.301
same,glycan array binding signal (z-score),[18],-1.04
same,glycan array binding signal (z-score),[19],-0.588
same,glycan array binding signal (z-score),[20],-0.321
same,glycan array binding signal (z-score),[21],-1.33
same,glycan array binding signal (z-score),[22],-0.082
same,glycan array binding signal (z-score),[23],-0.427
same,glycan array binding signal (z-score),[24],-0.973
same,glycan array binding signal (z-score),[25],-0.381
same,glycan array binding signal (z-score),[26],-0.417
same,glycan array binding signal (z-score),[27],-0.238
same,glycan array binding signal (z-score),[28],-0.57
same,glycan array binding signal (z-score),[29],-0.353
same,glycan array binding signal (z-score),[30],-0.716
same,glycan array binding signal (z-score),[31],-0.098
same,glycan array binding signal (z-score),[32],-0.577
same,glycan array binding signal (z-score),[33],1.69
same,glycan array binding signal (z-score),[34],0.116
same,glycan array binding signal (z-score),[35],-0.376
same,glycan array binding signal (z-score),[36],-0.554
same,glycan array binding signal (z-score),[37],0.306
same,glycan array binding signal (z-score),[38],-0.508
same,glycan array binding signal (z-score),[39],0.138
same,glycan array binding signal (z-score),[40],0.142
same,glycan array binding signal (z-score),[41],-0.859
same,glycan array binding signal (z-score),[42],-0.337
same,glycan array binding signal (z-score),[43],-0.558
same,glycan array binding signal (z-score),[44],-0.539
same,glycan array binding signal (z-score),[45],0.107
same,glycan array binding signal (z-score),[46],-0.314

# Another view of part of the listing above:
binder	measurement	setting	value
CBP21 (Serratia marcescens), O83009 (protein) MNKTSRTLLSLGLLSAAMFGVSQQANAHGYVESPASRAYQCKLQLNTQCGSVQAEPQSVEGLKGFPQAGPADGHIASADKSTFFELDQQTPTRWNKLNLKTGPNSFTWKLTARHSTTSWRYFITKPNWDASQPLTRASFDLTPFCQFNDGGAIPAAQVTHQCNIPADRSGSHVILAVWDIADTANAFYQAIDVNLSK	glycan array binding signal (z-score)	[1]	1.31
same	glycan array binding signal (z-score)	[2]	-0.781
same	glycan array binding signal (z-score)	[3]	-0.164
same	glycan array binding signal (z-score)	[4]	-0.744
same	glycan array binding signal (z-score)	[5]	0.409
same	glycan array binding signal (z-score)	[6]	-0.628
same	glycan array binding signal (z-score)	[7]	0.87
same	glycan array binding signal (z-score)	[8]	-0.143
same	glycan array binding signal (z-score)	[9]	-0.566
same	glycan array binding signal (z-score)	[10]	-0.011
same	glycan array binding signal (z-score)	[11]	0.503
same	glycan array binding signal (z-score)	[12]	0.002
